For orientation: Kd means a measure of binding affinity in units of concentration.

We go through five sequences from article PMC4784862, “DNA Sequence Determinants Controlling Affinity, Stability and Shape of DNA Complexes Bound by the Nucleoid Protein Fis”.

Substitutions are numbered along the chain they refer to. The exact form of at least one protein or probe is not confirmed. Protein sequences can lack the tags named with them. For some assays here: Whether high values mean tight binding is not given here for every scale.

One series deals with T1, Fis WT (UniProt P0A6R3).
T1 sequence (looked up, limits assumed): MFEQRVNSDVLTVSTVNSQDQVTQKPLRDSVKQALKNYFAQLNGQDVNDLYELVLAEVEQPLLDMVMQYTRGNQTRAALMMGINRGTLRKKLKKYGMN
As to the kind of experiment: EMSA. The note with it: EMSA: 20 mM Hepes pH 7.5, 0.15 M NaCl, 5% glycerol, 0.5 mg/ml BSA, 1 mM EDTA, 1 mM DTT, 0.1 nM 32P 27 bp probe, 50 ug/ml poly dI/dC, temperature not stated, recombinant protein, label: 5'-32P. Background: A gel shift assay detects complexes by their altered migration in electrophoresis.

For another series, the target named is T2, Fis T75A (UniProt P0A6R3).
T2 sequence (looked up, limits assumed): T1 sequence (looked up, limits assumed) with T75A
As to the kind of experiment: EMSA. The note with it: EMSA: 20 mM Hepes pH 7.5, 0.15 M NaCl, 5% glycerol, 0.5 mg/ml BSA, 1 mM EDTA, 1 mM DTT, 0.1 nM 32P 27 bp probe, 50 ug/ml poly dI/dC; temperature not stated; recombinant protein; label: 5'-32P.

Turning to “AAATTTGGAGGAATTTTCTCCAAATTT (double strand) [F32]”, the equilibrium dissociation constant (Kd) in the series with Fis WT (t1/2 too fast to detect) was found to be 28 nM.

For “AAATTAGTTTGAATTTTGAGCTAATTT (double strand) [F1±8A]”, the Kd with Fis WT (t1/2 5 min) worked out at 2.1 nM.

In the case of “AAATTGGTTTGAATTTTGAGCCAATTT (double strand) [F1±8G]”, the equilibrium dissociation constant (Kd) with Fis WT (t1/2 <0.25 min, Table 3 gives error 0.8) turned out to be 30 nM.

In the case of “AAATTTGTAGGAATTTTCTGCAAATTT (double strand) [F31]”, the binding signal (fold weaker than F1) in the series with Fis WT (t1/2 too fast to detect) stood at 100.

As for “AAATTTGTTTGAGCGTTGAGCAAATTT (double strand) [F28]”, the Kd with Fis T75A is over 1000 nM.
